PubChem BioAssay AID686938, Drosophila RNAi Screening Center | 2013

Aim: 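Looking for CRAC channel components and the factors controlling them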 (primary screen)
System: Drosophila S2R+ cells
Knock-down reagent: long dsRNA against Drosophila genes, about 0.25 µg dsRNA per well, roughly 10,000 cells
Timing: 5 days of knock-down before the calcium assay
Treatment: thapsigargin (SERCA pump blocker) to empty calcium stores; entry signal taken 4 min after adding it
Measured: 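Duplicate raw fluo-4 intensities per well from a plate reader, at rest and four minutes after thapsigargin emptied calcium stores; entry-to-rest ratio filled for only some wells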
Reading the numbers: calcium entry signal: higher = stronger calcium signal after store depletion; entry to resting ratio: higher = more calcium entry relative to resting level; resting calcium signal: higher = higher resting calcium signal
Active means: 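Called when the plate z-score of the entry-to-rest ratio, mean of duplicates, falls below −3; wells with low overall dye signal (Fmax z below −2) or more than five off-targets excluded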
Meaning of the calls: active = strongly reduced calcium entry; inactive = no strong reduction
The deposit covers about 23,000 reagents; this is a random part of those with a known target gene and a result. Of all reagents, 75 (0.33%) are marked active. 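Raw plate signals without normalisation; calls rest on plate z-scores that were not deposited; ratio present for only 364 wells.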 Unmarked entries are inactive. A plus sign joins genes that one reagent is predicted to hit. Reagent sequences are not shown. The record does not give: the dose of the treatment.

| Target gene | PubChem SID | calcium entry signal, replicate 1 (fluorescence units) | calcium entry signal, replicate 2 (fluorescence units) | entry to resting ratio | resting calcium signal, replicate 1 (fluorescence units) | resting calcium signal, replicate 2 (fluorescence units) |
| --- | --- | --- | --- | --- | --- | --- |
| CG42634 + CG42635 | SID104182242 | 4.51e7 | 3.71e7 | – | 2.07e7 | 1.82e7 |
| SmydA-9 | SID104197606 | 3.18e7 | 5.46e7 | – | 1.68e7 | 2.41e7 |
| CG2887 | SID104198027 | 3.33e7 | 5.26e7 | – | 1.62e7 | 2.15e7 |
| CG15369 | SID104197833 | 2.75e7 | 4.27e7 | – | 1.40e7 | 1.97e7 |
| Bap55 | SID104186792 | 3.04e7 (active) | 2.56e7 | – | 1.88e7 | 1.75e7 |
| CG6005 | SID104195737 | 3.46e7 | 2.35e7 | – | 1.68e7 | 1.16e7 |
| Mal-A4 | SID104187028 | 3.92e7 | 4.10e7 | – | 1.88e7 | 1.89e7 |
| Dtd | SID104195154 | 3.60e7 | 3.53e7 | – | 1.54e7 | 1.68e7 |
| CG34166 | SID104182274 | 3.54e7 | 1.75e7 | – | 1.86e7 | 1.02e7 |
| Zpr1 | SID104198224 | 2.80e7 | 3.41e7 | – | 1.43e7 | 1.58e7 |
| Spg7 | SID104198261 | 3.80e7 | 5.06e7 | 2 | 1.89e7 | 2.14e7 |
| CG13978 | SID104194512 | 3.81e7 | 5.43e7 | – | 1.97e7 | 2.30e7 |
| Pyroxd1 | SID104181890 | 4.47e7 | 4.42e7 | – | 2.25e7 | 1.91e7 |
| CG14615 | SID104200419 | 5.20e7 | 4.62e7 | – | 2.50e7 | 1.92e7 |
| Srrm1 | SID104189627 | 3.42e7 | 4.51e7 | – | 1.74e7 | 1.96e7 |
| CG9372 | SID104190860 | 2.49e7 | 4.90e7 | – | 1.30e7 | 2.35e7 |
| CG15553 | SID104194883 | 4.14e7 | 4.94e7 | – | 1.91e7 | 2.06e7 |
| CG15754 | SID104199511 | 4.07e7 | 4.62e7 | – | 2.02e7 | 1.95e7 |
| CG3358 | SID104184784 | 4.09e7 | – | – | 1.91e7 | – |
| galectin | SID104180097 | 3.66e7 | 3.74e7 | – | 1.65e7 | 1.54e7 |
| S1P | SID104191602 | 3.16e7 | 4.25e7 | – | 1.59e7 | 2.15e7 |
| ssp | SID104190044 | 4.24e7 | 4.16e7 | – | 3.23e7 | 1.94e7 |
| CG18508 | SID104197947 | 4.11e7 | 5.72e7 | 2.1 | 1.95e7 | 2.26e7 |
| CG32453 | SID104201356 | 4.11e7 | 3.67e7 | – | 2.35e7 | 1.81e7 |
| CG13309 | SID104189772 | 3.03e7 | 4.60e7 | – | 1.44e7 | 2.04e7 |
| CG33769 | SID104191508 | 2.88e7 | 5.06e7 | – | 1.33e7 | 2.17e7 |
| PH4alphaPV | SID104201878 | 3.18e7 | 2.73e7 | – | 1.64e7 | 1.13e7 |
| verm | SID104190830 | 3.70e7 | 3.64e7 | – | 1.74e7 | 2.48e7 |
| CR15280 | SID104181745 | 3.48e7 | 2.17e7 | – | 1.67e7 | 1.04e7 |
| Usp12-46 | SID104195967 | 5.11e7 | 4.63e7 | – | 2.16e7 | 1.84e7 |
| IFT54 | SID104195261 | 2.78e7 | 3.90e7 | – | 1.41e7 | 5.05e7 |
| Pop1 | SID104197531 | 2.56e7 | 4.10e7 | – | 1.25e7 | 1.74e7 |
| Vha16-4 | SID104187113 | 3.92e7 | 4.96e7 | – | 1.78e7 | 2.25e7 |
| Muc91C | SID104196089 | 4.40e7 | 3.73e7 | – | 4.81e7 | 1.75e7 |
| Muc91C | SID104201375 | 4.18e7 | 3.35e7 | – | 2.13e7 | 1.54e7 |
| CG4681 | SID104184273 | 4.33e7 | 5.11e7 | – | 2.18e7 | 2.28e7 |
| CG34011 | SID104180680 | 2.58e7 | 3.57e7 | – | 1.42e7 | 1.59e7 |
| Use1 | SID104189972 | 2.72e7 | 2.92e7 | – | 1.47e7 | 1.43e7 |
| CG40298 | SID104201794 | 2.42e7 | 3.15e7 | – | 1.17e7 | 1.43e7 |
| eIF4G2 | SID104193999 | 3.94e7 | 3.22e7 | – | 1.96e7 | 1.51e7 |
| eIF4G2 | SID104201409 | 2.31e7 | 3.64e7 | – | 1.25e7 | 1.79e7 |
